One substance from paper PMC8692132 can be followed below.

The chains behind the UniProt entries cited, without tags or fusion partners.
UniProt P02340: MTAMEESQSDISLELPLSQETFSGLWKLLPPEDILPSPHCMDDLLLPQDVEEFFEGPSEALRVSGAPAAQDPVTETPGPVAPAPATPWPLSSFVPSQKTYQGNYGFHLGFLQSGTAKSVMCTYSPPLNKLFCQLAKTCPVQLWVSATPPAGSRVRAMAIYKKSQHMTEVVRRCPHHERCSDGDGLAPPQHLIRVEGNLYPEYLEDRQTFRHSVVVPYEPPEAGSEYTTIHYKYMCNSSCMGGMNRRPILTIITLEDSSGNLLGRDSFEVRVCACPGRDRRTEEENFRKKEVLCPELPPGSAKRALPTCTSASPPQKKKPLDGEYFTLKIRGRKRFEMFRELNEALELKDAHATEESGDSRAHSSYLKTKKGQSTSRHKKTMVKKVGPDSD

For experiment [1], the target named is T1, PolG D257A of PolG^D257A/D257A mice, endogenous in aortas (mouse (endogenous in aortas)) (UniProt P54099).
T1 sequence: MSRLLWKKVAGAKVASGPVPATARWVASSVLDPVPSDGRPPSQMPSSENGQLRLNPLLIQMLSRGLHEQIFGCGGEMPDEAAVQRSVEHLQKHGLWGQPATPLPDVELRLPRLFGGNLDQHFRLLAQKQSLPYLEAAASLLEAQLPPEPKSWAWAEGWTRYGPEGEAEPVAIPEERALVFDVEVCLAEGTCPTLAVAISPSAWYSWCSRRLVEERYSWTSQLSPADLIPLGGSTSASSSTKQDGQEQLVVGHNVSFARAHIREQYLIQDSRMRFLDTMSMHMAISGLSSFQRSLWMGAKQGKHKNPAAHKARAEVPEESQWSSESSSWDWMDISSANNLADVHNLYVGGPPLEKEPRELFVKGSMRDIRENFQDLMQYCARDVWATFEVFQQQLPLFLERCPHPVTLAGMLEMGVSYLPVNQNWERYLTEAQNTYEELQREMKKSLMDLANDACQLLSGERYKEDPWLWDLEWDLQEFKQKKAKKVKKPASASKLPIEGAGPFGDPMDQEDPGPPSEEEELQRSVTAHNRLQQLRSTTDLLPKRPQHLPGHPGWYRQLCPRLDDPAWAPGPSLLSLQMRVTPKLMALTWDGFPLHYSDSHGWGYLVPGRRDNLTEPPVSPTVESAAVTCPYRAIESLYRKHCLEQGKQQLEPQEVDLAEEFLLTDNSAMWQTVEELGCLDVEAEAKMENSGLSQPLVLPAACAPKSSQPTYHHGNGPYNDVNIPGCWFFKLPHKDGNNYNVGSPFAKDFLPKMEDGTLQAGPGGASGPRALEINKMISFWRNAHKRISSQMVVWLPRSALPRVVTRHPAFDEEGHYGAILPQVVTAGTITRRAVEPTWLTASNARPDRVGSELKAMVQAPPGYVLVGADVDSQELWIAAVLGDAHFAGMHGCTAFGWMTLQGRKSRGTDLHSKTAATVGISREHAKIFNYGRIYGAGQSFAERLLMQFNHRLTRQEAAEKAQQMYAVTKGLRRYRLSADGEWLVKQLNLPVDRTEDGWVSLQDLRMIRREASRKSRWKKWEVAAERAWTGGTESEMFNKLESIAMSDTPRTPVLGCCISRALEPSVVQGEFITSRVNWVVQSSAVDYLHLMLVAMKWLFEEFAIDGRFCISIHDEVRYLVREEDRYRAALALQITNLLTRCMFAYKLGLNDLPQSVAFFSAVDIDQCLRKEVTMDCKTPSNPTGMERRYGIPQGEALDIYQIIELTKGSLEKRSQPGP
The experiment in a line: co-IP; lysates of aortas of WT and PolG^D257A/D257A mice with or without Vit D3 treatment; anti-PolG or anti-p53 antibody or control IgG on protein A/G beads; blot with anti-p53 or anti-PolG.

Experiment [2] concerns the target T2, PolG of wild type mice, endogenous in aortas (mouse (endogenous in aortas)) (UniProt P54099).
T2 sequence: T1 sequence with A257D
Described as above.

Substitutions are numbered along the chain they refer to. No constants are given. Whether binding was seen depends on the method and setting. In cells and extracts the contact can be indirect. Some results given as binding are weak or reduced against the parent protein; the word gives no strength.

For “p53, endogenous in mouse aortas (from UniProt P02340 1-390)”, the binding result in experiment [1] and in experiment [2] was “binds” each time.
